No constants are given. Whether binding was seen depends on the method and setting. In cells and extracts the contact can be indirect. Here binding means that the protein was enriched with, or labelled near, the bait; the list need not be complete. Tags and fused reporters may be left off the sequences shown.

Test [1] addresses T1, MecA with C-terminal tandem affinity purification (TAP) tag (3x HA + FLAG) (S. mutans) (UniProt Q8DW33).
T1 sequence: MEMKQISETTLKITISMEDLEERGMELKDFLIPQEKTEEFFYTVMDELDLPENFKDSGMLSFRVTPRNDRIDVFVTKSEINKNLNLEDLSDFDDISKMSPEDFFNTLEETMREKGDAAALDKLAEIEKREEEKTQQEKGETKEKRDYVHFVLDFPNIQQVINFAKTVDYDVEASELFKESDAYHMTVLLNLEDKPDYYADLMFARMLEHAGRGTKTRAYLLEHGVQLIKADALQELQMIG
Kind of test: affinity purification with mass spectrometry; MecA with C-terminal TAP tag (3x HA + FLAG) as bait; S. mutans grown to mid-logarithmic phase, formaldehyde crosslinked; anti-FLAG affinity resin, then anti-HA affinity resin; LC-MS/MS; three experiments; >=2-fold enrichment of spectral counts over the untagged wild type.

Test [2] concerns the target T1, MecA with C-terminal tandem affinity purification (TAP) tag (3x HA + FLAG) (S. mutans). Kind of test: affinity purification with mass spectrometry.

B1: Bifunctional acetaldehyde-CoA/alcohol dehydrogenase, AdhE (protein, UniProt Q8DWB9 1-889)
chain: MAKETKTEALTAEEAAKQYTNSLVEKALKAEKVYATYTQEQVDKIVAAMALAGSEASLQLAKEAHDETGRGVVEDKDTKNHFATEYVYERIKNEKTVGIIGEDKVAGSIEIAAPLGVLAGIVPTTNPTSTTMFKILVALKTRNAIVFAFHPAAQKCSAHAAQILYDAAVKAGAPENIVQWIETPSIANTGALISNKGIASILATGGPGMVNAALKSGNPSMGVGAGNGAVYVDATANLERAVEDLLLSKRFDNGMICATENSAVVEAPIYKEWLAKMQEKGAYLVPKKDYKKFEDFVFNDNHGVNGPVAGMSAKWICEQAGVTLPEGKDVLLFELDKKKIGEKLSSEKLSPLLSVYKAKDRKDGIDIVAALLDYQGAGHNCAIQIGSQADPFVAEYGDALNSSRVLVNQPDSVGGIGDVYTDALQASLTLGTGSWGKNSLSHNLSTGDLLNVKTVAKRRNRPQWVRLPEKTYYEKNAISYLQDETETMTRAIIVADPGMLQFGFVDTVLAQLSLRDEKVATSIYGTIKPDPTLGQTIEIARQMRDFKPDTVIAVGGGSALDAAKIARYIYEYSLDQEADFLDSYEKVSELFLELQQKFIDIRKRIVRFKHQTVTRLFCIPTTSGTGSEVTPYAVITDDFTHVKYPLTDYELTPQVAIVDPEFVMTVPKRTVALSGLDTLSHALESYVSVMASDFTRPWSMEAIRLVIENLEDSYNFDPKNPTLRGEQARENMHYAATLAGMAFSNAFLGINHSLAHKAGGEFGLPHGLAISIAMQHVIRYNGVAGNVKRSVYPRYEEYRAQRDYADIARALGLKGKDDAELVEALCARIDQLMHAVDVEPKLSANGVTKKAFDAAVDRLASLAYDDQCTPANPRQPYIEEMKQLLIDQF
As for B1, the binding result in test [1] is recorded as “binds”.

B2: Type I restriction-modification system subunit M, HsdM (protein, UniProt Q8DUM7 1-534)
chain: MSFNKESQQRQELHQKIWAIADNVRGAVDGWDFKQYILGILFYRFISENMSDYFDRAEHEAGDPDFRYADLSDEEAEEDFKPDTVEEKGFFILPSQLFENIVKTASTNENLNTDLAKIFKKIEESAIGKDSEHAIKGLFDDVDTTSNRLGGSVKEKNKRLSDILTGIAGLDFGTFEENDIDAFGDAYEYLISNYASNAGKSGGEFFTPQTVSKLLAQLVMVGKEHINKVYDPTCGSGSLLLQMKKQFETHILEEGFFGQEINMTNYNLARMNMFLHNINYNNFDIRRGDTLLNPQHLYERPFDAIVSNPPYSIKWIGDADPTLINDERFAPAGKLAPKSKADFAFIMHSLSHLSNKGRAAIVCFPGIFYRGGAEKTIRQYLIDNNFVEAVIALPDNLFYGTSIATYILVLAKNKPEDKTLFIDASSDEKSTVSGKNKFYETVTNGKILNPKNIEAIVELFKNKKDVDYEAKLVDNNLIAEENDYNLSVSTYVEKRDTREIINIDELNKEIAETVKKIDHLRSEIDKIVEELSHD
Take B2: the binding result in test [2] was “binds”.

B3: NAD-dependent malic enzyme, MleS (protein, UniProt Q8DWC7 1-540)
chain: MYAHDILNDPFLNKGTAFTMEERKKFGLIGLLPPHIQTLKEQAEQTYAQMQTKANNLEKRLFLMEIFNTNRTLFYYLFSQHLEELNPIVYDPTIADTIEGYSDLFVDPQYAGYLDINHPENIEATLKNAAGDRDIRLIVVTDAEGILGIGDWGTNGVDISVGKLMVYTGAAGIDPVTVLPLVIDAGTNREELRNNPNYLGNRHERVRGERYYDFVDQFVQTAERLFPKLYLHWEDFGRSNAANILEKYRKEIPTFNDDIQGTGIVTLGGIFAAMDITGEKLTDQVYLCYGGGTAGAGIASRVLREMVSEGLPEDEAYKRFFMVDKQGLLFDDMDDLTPEQKPFAKKRADFPNADQLTDLLQVVKTVKPTILVGTSTNPGAFTKEVVEAMCENTERPVIFPISNPTKLAEASAQDLITWSDGKAFVATGIPADTVSYKGVDYVIGQANNALIYPGLGLGMLASEASLLTDEMIGAAAHSLSGIIDITKPGAPVLPPFKYVGDVSIKVAEAVAKKAQEQGLARAEETDMAKAVRDFKWYPEY
Regarding B3, in test [1], the binding entry is “binds”.

B4: Fructose-bisphosphate aldolase, FbaA (protein, UniProt Q8DWG0 1-293)
chain: MAIVSAEKFVQAARDNGYAVGGFNTNNLEWTQAILRAAEAKKAPVLIQTSMGAAKYMGGYKLCKVLIETLVESMGITVPVAIHLDHGHYEDALECIEVGYTSIMFDGSHLPVEENLEKAKEVVAKAHAKGISVEAEVGTIGGEEDGIIGRGELAPIDDAKAMVETGIDFLAAGIGNIHGPYPANWEGLDLDHLKKLTEAVPGFPIVLHGGSGIPDDQIRAAIKLGVAKVNVNTECQIAFANATRKFAAEYEANEAEYDKKKLFDPRKFLKPGFEAITEAVEERIDVFGSEGKA
Regarding B4, the binding result in test [1] is on record as “binds”.

B5: Trk system potassium transporter, TrkA (protein, UniProt Q8DSR3 1-451)
chain: MKIIVVGGGKVGKALCRSLVEEEHDVILIEENESVLNHVTKRLDIMGIVGNGANFRILEQADVQHCDIFIAITDKDEVNMVAAVLAKRMGAKETIVRVRNPEYSNTYFKDKNFLGFSLVVNPELLTARYIANMVDFPNARSVEHFVNGRVMLMEFKIVDGNNLCQMSLNQFRKRFNNIVICAIERGNELIIPDGDAVIQSGDKIFVTGKRMEMIHFHNFVKNKVIKHLMIIGAGRISYYLLNILKTTNRHLQVKVIELNPKKAELFSQEFPHIHVVQGDGTAKDILLEESAANYDAIATLTGVDEENIIASMFLETLGVQKNITKVNRTSILEIINPEQFSSIITPKSIAVDSMMHFIRGRVNAQDSNLDAMHHVANGRIETLQFEIRQTNKMAGKTLSELHFKTNVLIAAIIRNGKTIFPTGDDILEVGDKIVVITLLTNITHIYDLLKR
Turning to B5, the binding entry in test [1] is “binds”.

B6: Glycogen/starch/alpha-glucan phosphorylase, GlgP (protein, UniProt Q8DT31 1-758)
chain: MTQKTKQFSKYVQEKTGQNLEQLSNEAIYVQLLHFVKEAAKDMPKNTSKRKVYYISAEFLIGKLLSNNLINLGLYKTVKDELAAAGKSISQVEDVELEPSLGNGGLGRLASCFIDSMATLGINGEGVGLNYHCGLFKQVFRDNQQEAEPNYWIEDDSWLVPTAISYDVPFRDFTLKSKLDRIDILGYHKDSKNYLNLFDIDGLDYGLIKDGITFDKTEIKKNLTLFLYPDDSDKNGELLRIYQQYFMVSNAAQLLIDEALERGSNLHDLADYAYVQINDTHPSMVIPELIRLLNEKHGLDFYEAVDIVKNMIGYTNHTILAEALEKWPLEYLNEVVPHLVTIIEHLDRIVRSQYKDDAVQIIDRDDRVHMAHMDIHFSTSVNGVAALHTDILKNSELKPFYDIYPEKFNNKTNGITFRRWLEFANQDLAAYIKELIGEGYLEDATELEKLLAFADDKTVHEQLAKIKFNNKLALKRYLKENKGINLDENSIIDTQIKRFHEYKRQQMNALYVIYKYLEIKKGNLPKRKITVIFGGKAAPAYTIAQDIIHLILCLSELINNDPDVSPYLNVFLVENYNVTVAEKLIPATDISEQISLASKEASGTGNMKFMLNGALTLGTMDGANVEIAELVGSDNIYIFGKDSDTIIDLYDKGTYVSKDYYTNNAVIKEAVDFIVSKDVLALGKKERLERLYHELINKDWFMTLIDLKEYIAKKEEMLADYEDQNVWNKKVIQNIAKAGFFSSDRTIQQYDKDIWHSL
For B6, in test [1], the binding entry is recorded as “binds”.

B7: Heat-inducible transcriptional repressor, HrcA (protein, UniProt O06940 1-344)
chain: MITQRQKDILNLIVELFTKTHEPIGSKTLQNSIASSSATIRNDMAALEKLGLLEKAHTSSGRLPSQEGFRYFVEHSLNPDSLDEQDVYQVIKAFDFEAFRLGDLLQRASDVLANLTGYTALILDVEPKKQRLTTFDIVKLSNHDALAVLTLDEASPVTVQFAIPKNFLDSDLMTVAKIARERFLNQTVLDIHYRLRTELPQIIQKYFPRTDNVLDLFDHIFNPIFQEEVFISGKIKTLEFAGLNTYQFLENLQSVALEIRQSLPEDELHRVQVADSKEKSLADLTVISQKFLIPYRGFGILTVIGPVDLDYQRTISLINVISRVLAVKLGDFYRYLNSNHYEVH
On to B7, for which the binding entry in test [1] was “binds”.

For the origin of these results see PMC10845952.
